These are yes or no findings as the source states them, for the method shown. Some binding calls cover weakened binding; strength is not graded here. For some of these results: Sequences can lack the tags named with a protein.

The chains behind the UniProt entries cited, without tags or fusion partners. Where a name states a change or a piece, a line headed by the entry shows the natural chain unless it says otherwise. Residues count along the entry.
UniProt Q9Y275: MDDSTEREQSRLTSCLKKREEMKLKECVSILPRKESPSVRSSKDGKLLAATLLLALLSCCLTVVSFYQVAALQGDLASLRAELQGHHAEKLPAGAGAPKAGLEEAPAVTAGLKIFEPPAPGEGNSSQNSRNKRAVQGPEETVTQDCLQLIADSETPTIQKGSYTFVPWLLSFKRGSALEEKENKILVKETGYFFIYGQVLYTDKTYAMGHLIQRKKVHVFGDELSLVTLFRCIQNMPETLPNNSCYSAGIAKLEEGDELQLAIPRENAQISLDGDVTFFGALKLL
UniProt O75888: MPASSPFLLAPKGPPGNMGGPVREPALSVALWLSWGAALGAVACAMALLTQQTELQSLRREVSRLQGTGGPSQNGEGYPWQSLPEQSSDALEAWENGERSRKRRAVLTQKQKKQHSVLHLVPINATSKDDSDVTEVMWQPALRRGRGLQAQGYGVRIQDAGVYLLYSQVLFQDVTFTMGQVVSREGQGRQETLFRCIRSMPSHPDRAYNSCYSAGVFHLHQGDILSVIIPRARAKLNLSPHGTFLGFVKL
UniProt Q9D777, residues 96-241: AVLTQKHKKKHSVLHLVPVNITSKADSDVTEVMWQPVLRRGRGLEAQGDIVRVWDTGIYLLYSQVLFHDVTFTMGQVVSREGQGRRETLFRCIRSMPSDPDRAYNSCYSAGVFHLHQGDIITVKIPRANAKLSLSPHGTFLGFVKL
UniProt Q9WU72, residues 127-309: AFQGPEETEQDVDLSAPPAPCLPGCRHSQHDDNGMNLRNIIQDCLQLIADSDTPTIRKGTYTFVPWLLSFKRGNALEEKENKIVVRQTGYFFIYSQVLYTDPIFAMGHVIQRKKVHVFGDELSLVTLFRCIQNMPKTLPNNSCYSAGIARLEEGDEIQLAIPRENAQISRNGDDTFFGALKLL

In test [1] the target is FLAG-tagged cynomolgous APRIL (cynomolgus monkey). Description: SPR vs BAv8-10.
Test [2] concerns the target FLAG-tagged human BAFF (human) (UniProt Q9Y275). Description: SPR vs BAv8-10.
Test [3] has as its target FLAG-tagged recombinant human APRIL (human) (UniProt O75888). In words: kinetic exclusion binding assay (KINEXA 3200), huAPRIL in solution.
Test [4] has as its target human APRIL (Examples 21-23) (human) (UniProt O75888). Description: SPR (Carterra LSA).
Test [5] deals with human BAFF (Examples 21-23) (human) (UniProt Q9Y275). In words: SPR (Carterra LSA).
Test [6] addresses murine APRIL (Examples 22-23) (mouse) (UniProt Q9D777). In words: SPR (Carterra LSA).
The target of test [7] is murine BAFF (Examples 22-23) (mouse) (UniProt Q9WU72). In words: SPR (Carterra LSA).
Test [8] concerns the target human BAFF (Examples 21-23) (human) (UniProt Q9Y275). Description: colorimetric ELISA, inhibition curves. A general note: An ELISA detects its analyte on a solid surface through an enzyme-linked reagent.
Test [9] has the same target. Description: colorimetric ELISA, inhibition curve (450 nm against LogM of the fusion protein) for human BAFF; the partner on the plate not given.

In the case of AGQCSQNEYFDHLVRACTPCQVRCSSNTPPLTCQRYCNAGVTNSVKGTNA (Fc fusion, not shown: a dimerising Fc or GST) [BAv75-Ig], the binding result in test [1] and in [2] was “binds” throughout.

Take AGQCSQNEYFDHLIRACIPCQLRCSSNTPPLTCQRYCNAGVTNSVGGGGS (Fc fusion, human, not shown: a dimerising Fc or GST) [BAv9-1-5L-pIg23]: the binding entry in test [3] is given as “binds”.

As for AGQCSQNEYFDHLIRACTPCQVRCSSNTPPLTCQRYCNAGVTNSVKGTNA (Fc fusion, not shown: a dimerising Fc or GST) [BAv74-Ig], the binding result in test [1] and in [2] was “binds” throughout.

Consider AGQCSQNEYFDHLIRICIPCQVRCSSNTPPLTCQRYCNAGVTNSVKGTNA (Fc fusion, not shown: a dimerising Fc or GST) [BAv71-Ig], for which the binding entry in [1] and in test [2] was “binds” throughout.

B1: BAv9-1 CRD-IgG4 Fc (Fc fusion)
chain: AGQCSQNEYFDHLIRACIPCQLRCSSNTPPLTCQRYCNAGVTNSVGGGGSAESKYGPPCPPCPAPEAAGGPSVFLFPPKPKDTLMISRTPEVTCVVVDVSQEDPEVQFNWYVDGVEVHNAKTKPREEQFNSTYRVVSVLTVLHQDWLNGKEYKCKVSNKGLPSSIEKTISKAKGQPREPQVYTLPPSQEEMTKNQVSLTCLVKGFYPSDIAVEWESNGQPENNYKTTPPVLDSDGSFFLYSRLTVDKSRWQEGNVFSCSVMHEALHNHYTQKSLSLSPGK
As for B1, the binding result in test [4], in test [5], in [6], in [7], in test [8] and in [9] was “binds” each time.
